Publication PMC7224192, “MYC transcription activation mediated by OCT4 as a mechanism of resistance to 13-cisRA-mediated differentiation in neuroblastoma”
No constants are given. Whether binding was seen depends on the method and setting. For some of these results: Binding seen in cells or lysates may run through a third protein. Some entries that bind do so weakly or less than the wild type.

Amino acid sequences for entries named in this document (tags omitted).
UniProt Q01860: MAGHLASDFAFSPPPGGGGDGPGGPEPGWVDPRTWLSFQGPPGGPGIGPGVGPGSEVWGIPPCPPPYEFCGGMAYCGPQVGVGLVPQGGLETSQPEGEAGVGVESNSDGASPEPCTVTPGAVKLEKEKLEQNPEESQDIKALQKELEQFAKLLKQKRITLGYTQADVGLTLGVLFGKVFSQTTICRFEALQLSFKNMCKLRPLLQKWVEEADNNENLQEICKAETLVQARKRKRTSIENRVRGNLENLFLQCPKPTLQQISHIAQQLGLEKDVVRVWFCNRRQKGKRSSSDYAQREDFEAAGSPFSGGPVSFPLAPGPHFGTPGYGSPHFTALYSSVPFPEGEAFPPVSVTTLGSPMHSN
UniProt P49137: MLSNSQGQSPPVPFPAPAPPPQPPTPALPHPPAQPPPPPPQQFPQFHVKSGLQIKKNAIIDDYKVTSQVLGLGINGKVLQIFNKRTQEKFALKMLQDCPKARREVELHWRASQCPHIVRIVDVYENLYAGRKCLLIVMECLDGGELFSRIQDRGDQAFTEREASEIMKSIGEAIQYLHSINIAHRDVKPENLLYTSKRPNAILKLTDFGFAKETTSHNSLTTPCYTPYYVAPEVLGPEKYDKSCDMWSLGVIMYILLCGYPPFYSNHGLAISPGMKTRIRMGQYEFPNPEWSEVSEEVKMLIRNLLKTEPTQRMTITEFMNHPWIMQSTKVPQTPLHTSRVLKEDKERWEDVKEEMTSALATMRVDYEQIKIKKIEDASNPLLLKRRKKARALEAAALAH
UniProt P78527: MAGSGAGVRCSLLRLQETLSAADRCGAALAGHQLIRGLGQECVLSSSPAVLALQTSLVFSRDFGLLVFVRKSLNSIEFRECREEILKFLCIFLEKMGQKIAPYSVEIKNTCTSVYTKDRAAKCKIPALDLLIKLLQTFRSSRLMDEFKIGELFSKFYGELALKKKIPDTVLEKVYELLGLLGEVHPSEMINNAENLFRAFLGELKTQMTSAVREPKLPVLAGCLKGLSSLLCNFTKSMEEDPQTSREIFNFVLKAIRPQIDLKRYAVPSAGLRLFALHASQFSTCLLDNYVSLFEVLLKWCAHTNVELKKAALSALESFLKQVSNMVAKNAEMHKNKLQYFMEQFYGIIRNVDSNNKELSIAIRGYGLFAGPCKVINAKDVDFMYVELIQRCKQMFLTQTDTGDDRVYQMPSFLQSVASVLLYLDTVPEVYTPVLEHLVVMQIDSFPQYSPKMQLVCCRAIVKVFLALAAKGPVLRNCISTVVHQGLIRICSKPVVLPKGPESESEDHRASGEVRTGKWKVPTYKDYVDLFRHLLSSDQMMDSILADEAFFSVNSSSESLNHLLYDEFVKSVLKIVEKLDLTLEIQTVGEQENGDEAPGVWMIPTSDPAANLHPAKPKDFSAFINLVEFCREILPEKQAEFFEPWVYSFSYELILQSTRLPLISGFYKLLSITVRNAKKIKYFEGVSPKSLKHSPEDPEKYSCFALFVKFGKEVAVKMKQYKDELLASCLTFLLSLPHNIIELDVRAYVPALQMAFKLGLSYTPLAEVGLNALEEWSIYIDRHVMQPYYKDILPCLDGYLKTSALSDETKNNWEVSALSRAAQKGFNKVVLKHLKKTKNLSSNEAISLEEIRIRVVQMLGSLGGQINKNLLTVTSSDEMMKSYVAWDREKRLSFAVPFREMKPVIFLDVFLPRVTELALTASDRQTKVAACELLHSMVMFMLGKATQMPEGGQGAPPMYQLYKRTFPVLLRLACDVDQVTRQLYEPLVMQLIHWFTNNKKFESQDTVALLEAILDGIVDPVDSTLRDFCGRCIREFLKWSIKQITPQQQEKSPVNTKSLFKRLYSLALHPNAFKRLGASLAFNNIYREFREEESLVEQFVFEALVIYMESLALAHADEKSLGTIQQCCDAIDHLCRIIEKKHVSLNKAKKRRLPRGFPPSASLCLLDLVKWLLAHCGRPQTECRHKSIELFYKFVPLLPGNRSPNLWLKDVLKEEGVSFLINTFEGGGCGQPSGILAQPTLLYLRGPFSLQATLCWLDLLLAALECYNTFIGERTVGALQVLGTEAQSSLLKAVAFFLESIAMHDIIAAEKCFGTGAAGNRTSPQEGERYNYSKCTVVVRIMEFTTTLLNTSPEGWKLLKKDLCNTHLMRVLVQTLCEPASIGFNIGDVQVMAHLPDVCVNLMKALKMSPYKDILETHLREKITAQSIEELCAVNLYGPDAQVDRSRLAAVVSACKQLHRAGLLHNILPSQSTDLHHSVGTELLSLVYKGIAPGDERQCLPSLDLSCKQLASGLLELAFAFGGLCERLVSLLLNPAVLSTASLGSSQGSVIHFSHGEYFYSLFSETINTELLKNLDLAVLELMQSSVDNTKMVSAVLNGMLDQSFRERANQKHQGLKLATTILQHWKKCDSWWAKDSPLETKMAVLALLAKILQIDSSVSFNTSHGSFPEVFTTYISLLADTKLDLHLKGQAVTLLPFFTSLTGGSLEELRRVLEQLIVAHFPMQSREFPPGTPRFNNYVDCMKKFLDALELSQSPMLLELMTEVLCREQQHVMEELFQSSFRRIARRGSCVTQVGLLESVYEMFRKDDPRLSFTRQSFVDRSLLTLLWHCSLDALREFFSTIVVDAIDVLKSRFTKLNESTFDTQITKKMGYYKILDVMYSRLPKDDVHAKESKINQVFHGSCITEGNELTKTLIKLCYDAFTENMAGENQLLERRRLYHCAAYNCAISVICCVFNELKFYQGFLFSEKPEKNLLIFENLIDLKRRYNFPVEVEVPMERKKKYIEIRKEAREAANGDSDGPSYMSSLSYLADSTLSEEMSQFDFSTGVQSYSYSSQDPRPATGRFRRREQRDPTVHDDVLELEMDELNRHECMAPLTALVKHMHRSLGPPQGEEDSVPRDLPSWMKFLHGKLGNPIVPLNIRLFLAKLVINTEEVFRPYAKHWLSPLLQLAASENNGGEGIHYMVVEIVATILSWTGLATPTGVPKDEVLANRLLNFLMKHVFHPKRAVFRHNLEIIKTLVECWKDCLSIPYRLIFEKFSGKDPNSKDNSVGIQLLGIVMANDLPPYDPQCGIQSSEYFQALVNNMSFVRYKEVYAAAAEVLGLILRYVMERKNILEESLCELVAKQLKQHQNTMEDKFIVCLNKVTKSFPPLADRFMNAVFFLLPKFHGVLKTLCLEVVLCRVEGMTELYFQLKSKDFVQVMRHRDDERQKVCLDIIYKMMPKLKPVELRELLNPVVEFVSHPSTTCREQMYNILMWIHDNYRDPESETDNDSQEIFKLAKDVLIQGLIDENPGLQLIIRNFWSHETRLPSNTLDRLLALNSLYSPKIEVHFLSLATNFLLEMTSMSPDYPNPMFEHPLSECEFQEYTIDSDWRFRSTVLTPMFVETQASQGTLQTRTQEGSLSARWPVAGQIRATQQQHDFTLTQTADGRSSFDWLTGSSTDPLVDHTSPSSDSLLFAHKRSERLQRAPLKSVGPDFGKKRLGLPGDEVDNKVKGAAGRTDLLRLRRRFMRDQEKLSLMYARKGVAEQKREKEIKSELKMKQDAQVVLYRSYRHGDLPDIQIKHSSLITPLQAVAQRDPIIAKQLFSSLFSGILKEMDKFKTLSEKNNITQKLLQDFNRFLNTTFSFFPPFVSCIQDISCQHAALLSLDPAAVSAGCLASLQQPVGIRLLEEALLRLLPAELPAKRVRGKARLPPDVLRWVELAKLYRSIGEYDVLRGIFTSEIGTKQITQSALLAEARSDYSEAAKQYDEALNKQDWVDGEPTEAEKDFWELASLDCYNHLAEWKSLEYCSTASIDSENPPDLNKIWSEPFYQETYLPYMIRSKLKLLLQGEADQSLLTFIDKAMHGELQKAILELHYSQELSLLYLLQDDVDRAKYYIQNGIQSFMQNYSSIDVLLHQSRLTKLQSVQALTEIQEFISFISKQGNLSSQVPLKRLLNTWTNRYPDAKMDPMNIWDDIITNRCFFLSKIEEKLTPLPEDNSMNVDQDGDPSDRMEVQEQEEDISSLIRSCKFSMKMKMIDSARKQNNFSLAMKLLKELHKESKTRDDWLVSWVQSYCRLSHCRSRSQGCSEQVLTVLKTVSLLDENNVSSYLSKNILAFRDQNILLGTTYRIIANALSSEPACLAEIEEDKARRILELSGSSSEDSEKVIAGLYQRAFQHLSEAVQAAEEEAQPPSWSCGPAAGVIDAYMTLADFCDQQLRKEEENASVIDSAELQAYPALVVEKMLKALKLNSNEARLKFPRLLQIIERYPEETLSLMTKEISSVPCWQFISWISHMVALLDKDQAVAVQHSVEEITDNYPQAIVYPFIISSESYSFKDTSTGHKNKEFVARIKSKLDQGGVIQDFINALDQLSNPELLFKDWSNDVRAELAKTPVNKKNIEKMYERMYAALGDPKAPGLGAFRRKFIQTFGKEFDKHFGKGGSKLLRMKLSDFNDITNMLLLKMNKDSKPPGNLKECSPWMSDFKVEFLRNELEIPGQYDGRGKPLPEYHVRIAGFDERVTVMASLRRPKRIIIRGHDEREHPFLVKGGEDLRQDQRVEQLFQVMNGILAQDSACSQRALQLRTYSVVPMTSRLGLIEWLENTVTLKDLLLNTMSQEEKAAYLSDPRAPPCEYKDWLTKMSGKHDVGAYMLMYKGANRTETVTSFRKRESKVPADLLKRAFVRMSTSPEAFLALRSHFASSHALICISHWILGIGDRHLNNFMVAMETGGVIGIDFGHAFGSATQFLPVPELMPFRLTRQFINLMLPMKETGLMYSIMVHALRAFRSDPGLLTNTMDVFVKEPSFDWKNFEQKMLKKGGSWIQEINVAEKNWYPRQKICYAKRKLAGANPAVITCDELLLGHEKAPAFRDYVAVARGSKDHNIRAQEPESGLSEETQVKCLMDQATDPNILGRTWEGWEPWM

Key:
[1] = target: NH2-terminal His-tagged human recombinant OCT4 protein (human) (UniProt Q01860); assay: pull-down; Ni-NTA pull down using purified proteins (His-OCT4 and MK2-mycDDK); both purified
[2] = target: mycDDK-tagged wild-type OCT4 (POU5F1) (human) (UniProt Q01860); assay: co-IP; immunoprecipitation from subcellular fractions (nuclear) of LHN-R cells stably transduced with doxycycline-inducible OCT4-mycDDK; immunoblot
[3] = target: COOH-terminal mycDDK-tagged human recombinant MK2 protein (human) (UniProt P49137); assay: co-IP; immunoprecipitation by anti-FLAG using purified proteins (MK2-mycDDK and His-OCT4); both purified

Substance | binding [2] | also measured
COOH-terminal mycDDK-tagged human recombinant MK2 protein (from UniProt P49137 1-400) (enzyme) |  | binding [1]: binds
DNA-PKcs, endogenous (from UniProt P78527 1-4128) (enzyme) | binds | 
MAPKAPK2 (MK2), endogenous (from UniProt P49137 1-400) (enzyme) | binds | 
NH2-terminal His-tagged human recombinant OCT4 protein (from UniProt Q01860 1-360) |  | binding [3]: binds
